The source of these data is patent US20070081951A1, “Prevention of dental plaque and dental calculus in animals” (priority 2005, published 2007).

What all share (type): cell-based
What all share (conditions): 20 ul specimen on TSA agar lawn, 37° C., 5% CO2, read at 24 and 48 h; CPC 0.05%, CHX 0.1%, acids 1% (wt. %)

Experiment [1] relates to Streptococcus mutans (TH16). Put plainly: Zones of inhibition of growth on TSA agar plates, Streptococcus mutans (TH16). How it is done:
(§1) This study was conducted to determine whether anti-calculus agents inhibit the antimicrobial activity of cetyl pyridium chloride […] and chlorhexidine (CHX).
(§2) Experimental Design: TSA agar plates were individually swabbed with fresh 24 h broth cultures of Streptococcus mutans (TH16), Streptococcus parasanguis (FW213) and Actinomyces viscosus (AV) to provide a confluent lawn of bacterial growth. Five minutes after swabbing the plates (to allow the inoculum to absorb into the agar), 20 ul of each test specimen (see below) was placed onto designated places on the plates and allowed to absorb into the agar. The plates were incubated agar-side up at 37° C. in 5% CO2 for 48 h. Plates were examined at 24 and 48 h for zones of inhibition of growth for each bacterial species. The diameter of each zone was measured in mm. The zones of inhibition of each mixture (anti-calculus and antimicrobial agents) were compared to the zones of each agent separately. If the zones of the mixtures were the same size (or larger) than the inhibition zones from the antimicrobial agent alone then there was no inhibition of antimicrobial activity by the anti-calculus agent.
(§3) Test Specimens: There were 12 different samples/test specimens used in this experiment. […]

Experiment [2] concerns Actinomyces viscosus (AV). The experiment in a line: Zones of inhibition of growth on TSA agar plates, Actinomyces viscosus (AV). How it is done:
as §1, §2, §3

The subject of experiment [3] is Streptococcus parasanguis (FW213). The experiment in a line: Zones of inhibition of growth on TSA agar plates, Streptococcus parasanguis (FW213). How it is done: as §1, §2, §3

With `CCCCCCCCCCCCCCCC[n+]1ccccc1` [CPC alone, cetyl pyridinium chloride], in experiment [1], the “Zones of Inhibition of Growth, TH16” value worked out at 7 mm. For the same compound, in experiment [2], the “Zones of Inhibition of Growth, AV” value is 14 mm. In experiment [3], the “Zones of Inhibition of Growth, FW213” value is 9 mm.
